The exact form of at least one protein or probe is not confirmed. The comparison behind a weaker result is the experiment's own reference, which may not be listed here. Tags and fusion partners may be left off the protein sequences shown. At least one verdict was read from the data and is not stated in words by the source.

This series has as its target T1, His-GlnR (UniProt A0R4C4).
T1 sequence (looked up, limits assumed): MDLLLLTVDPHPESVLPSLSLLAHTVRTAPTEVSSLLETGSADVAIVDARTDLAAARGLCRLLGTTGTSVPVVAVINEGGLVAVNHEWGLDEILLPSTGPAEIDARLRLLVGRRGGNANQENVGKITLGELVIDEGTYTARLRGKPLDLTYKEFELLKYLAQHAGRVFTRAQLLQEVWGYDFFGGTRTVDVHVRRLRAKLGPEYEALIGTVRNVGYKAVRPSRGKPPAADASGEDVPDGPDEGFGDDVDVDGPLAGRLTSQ
The series can be described thus: EMSA. Conditions: EMSA: 0.4 ng DIG-labelled DNA, 0-0.9 ug His-GlnR, 0.5 ug poly d(A-T), 25 mM Hepes pH 7.9, 150 mM NaCl, 2.5 mM MgCl2, 37 C, 15 min; recombinant protein; protein details: N-terminal His6 (pET28b); label: DIG 3'-end.

For the sequence “GCAATCGCGGGGTAACGCCGTCCCGGAAACAGAGCCTGCCT (double strand) [Peak 2 long (ACn12AC)]”, the binding result is reported as “binds more weakly”. Next, “GCAATCGCGGGGTAACGCCGTGGAAACAGAGCCTGCCT (double strand) [Peak 2 WT]”: “binds”. Next, “GCAATCGCGGGGTAACGTGGAAACAGAGCCTGCCT (double strand) [Peak 2 short (ACn6AC)]”: “binds more weakly”; “TCATGTCGAGGTTAATTTGTTCGTCACACACAGACATT (double strand) [Peak 24 WT]”: “binds”.

Source of the values: PMC3662644, “Genome wide analysis of the complete GlnR nitrogen-response regulon in Mycobacterium smegmatis”.
